PubChem BioAssay AID1224826, NIAID, 2016

Assay: 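Genes that change LPS-induced Tnf promoter activity in mouse macrophages when knocked down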 (primary screen)
Cell system: RAW264.7 G9 macrophages from mouse bearing reporters for p65 (GFP) and the Tnf promoter (mCherry)
Reagents: siRNA pool against mouse genes, 100 nM
Time to read-out: 16 h of LPS stimulation, after 2 days of siRNA transfection
Treatment: bacterial lipopolysaccharide (Salmonella minnesota R595), 10 ng/ml
Measured: 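Imaged Tnf reporter mCherry in nuclei, minus background, normalised per plate to the median and expressed as robust z-scores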
Reading the numbers: Tnf reporter robust z-score: higher = stronger Tnf promoter reporter signal after LPS; Tnf reporter intensity: higher = stronger Tnf promoter reporter signal
Hit rule: 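a well counts as active at a score of -1.3 or below (Tlr4 knock-down control median) or above 3 (raised signal); controls and wells holding fewer than 50 cells are excluded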
Meaning of the calls: active = Tnf reporter clearly lowered or raised; inactive = no clear change in Tnf reporter
The deposit covers about 17,000 reagents; shown is an unselected part. About 1,110 of all reagents (6.6%) were called active. 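Active means lowered or raised reporter signal; replicate intensities are raw and not normalised per plate.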 Entries without a mark were called inactive. Not all columns of the deposit are shown.

gene knocked down | Tnf reporter robust z-score | fewer than 50 cells in well | Tnf reporter intensity, replicate 1
4930591A17Rik (GeneID 68175) | -0.03 | enough cells in well | 205
Acbd3 (GeneID 170760) | -0.1 | enough cells in well | 208
Prkdc (GeneID 19090) | 0.01 | enough cells in well | 193
Nup160 (GeneID 59015) | -0.94 | enough cells in well | 127
Cops7a (GeneID 26894) | 1 | enough cells in well | 258
Tor3a (GeneID 30935) | -1.18 | enough cells in well | 72.8
Slc2a3 (GeneID 20527) | 0.08 | enough cells in well | 233
Rps5 (GeneID 20103) | -0.94 | enough cells in well | 207
Ddb2 (GeneID 107986) | -0.2 | enough cells in well | 191
Bmp1 (GeneID 12153) | 1.23 | enough cells in well | 129
Paip2b (GeneID 232164) | -0.26 | enough cells in well | 178
Tnfaip2 (GeneID 21928) | -0.42 | enough cells in well | 193
Sort1 (GeneID 20661) | 0.52 | enough cells in well | 411
BC048671 (GeneID 243535) | 0.05 | enough cells in well | 82.6
Zfp219 (GeneID 69890) | 0.4 | enough cells in well | 144
Oas2 (GeneID 246728) | -0.26 | enough cells in well | 247
Tedc1 (GeneID 104732) | – | fewer than 50 cells per well; well left out of calls | 162
Fuom (GeneID 69064) | -0.66 | enough cells in well | 170
Aipl1 (GeneID 114230) | -0.18 | enough cells in well | 190
Vps4b (GeneID 20479) | 0.45 | enough cells in well | 147
Dusp26 (GeneID 66959) | – | fewer than 50 cells per well; well left out of calls | 89.6
Nmu (GeneID 56183) | 0.58 | enough cells in well | 292

Next part; the last 3 above are carried over.
gene knocked down | Tnf reporter robust z-score | fewer than 50 cells in well | Tnf reporter intensity, replicate 1
Vps4b (GeneID 20479) | 0.45 | enough cells in well | 147
Dusp26 (GeneID 66959) | – | fewer than 50 cells per well; well left out of calls | 89.6
Nmu (GeneID 56183) | 0.58 | enough cells in well | 292
Or3a10 (GeneID 259005) | -0.83 | enough cells in well | 243
Sardh (GeneID 192166) | 0.39 | enough cells in well | 343
Zfp14 (GeneID 243906) | – | fewer than 50 cells per well; well left out of calls | 211
Ifnk (GeneID 387510) | -0.67 | enough cells in well | 167
Chchd3 (GeneID 66075) | 0.51 | enough cells in well | 198
A730089K16Rik (GeneID 320411) | -0.31 | enough cells in well | 142
Fn3k (GeneID 63828) | 1.08 | enough cells in well | 265
Phyhipl (GeneID 70911) | 2.18 | enough cells in well | 250
Irf8 (GeneID 15900) | -1.43 (active) | enough cells in well | 127
Ano10 (GeneID 102566) | 1.26 | enough cells in well | 315
Tcf19 (GeneID 106795) | -0.75 | enough cells in well | 191
Or10g9b (GeneID 259110) | – | fewer than 50 cells per well; well left out of calls | 129
Dph6 (GeneID 66632) | 0.11 | enough cells in well | 165
Sec24b (GeneID 99683) | 0.34 | enough cells in well | 252
Mcf2l (GeneID 17207) | 1.17 | enough cells in well | 230
Il18rap (GeneID 16174) | -0.95 | enough cells in well | 157
Zfp446 (GeneID 269870) | 0.62 | enough cells in well | 187
Tigd5 (GeneID 105734) | -0.31 | enough cells in well | 133
